These are yes or no findings as the source states them, for the method shown. Binding seen in cells or lysates may run through a third protein. These calls come from enrichment with a bait or labelling near it, and not all partners need be listed.
Target: Fatty acid synthase (FASN), endogenous in osteosarcoma cells (human (endogenous in 143B and U2OS)) (UniProt P49327)
Experiment: affinity purification with mass spectrometry; co-immunoprecipitation of FASN from OS cells, silver staining and mass spectrometry; 127 proteins identified

Protein sequences, listed by entry. Tags and fused reporters are not part of them.
UniProt P49327: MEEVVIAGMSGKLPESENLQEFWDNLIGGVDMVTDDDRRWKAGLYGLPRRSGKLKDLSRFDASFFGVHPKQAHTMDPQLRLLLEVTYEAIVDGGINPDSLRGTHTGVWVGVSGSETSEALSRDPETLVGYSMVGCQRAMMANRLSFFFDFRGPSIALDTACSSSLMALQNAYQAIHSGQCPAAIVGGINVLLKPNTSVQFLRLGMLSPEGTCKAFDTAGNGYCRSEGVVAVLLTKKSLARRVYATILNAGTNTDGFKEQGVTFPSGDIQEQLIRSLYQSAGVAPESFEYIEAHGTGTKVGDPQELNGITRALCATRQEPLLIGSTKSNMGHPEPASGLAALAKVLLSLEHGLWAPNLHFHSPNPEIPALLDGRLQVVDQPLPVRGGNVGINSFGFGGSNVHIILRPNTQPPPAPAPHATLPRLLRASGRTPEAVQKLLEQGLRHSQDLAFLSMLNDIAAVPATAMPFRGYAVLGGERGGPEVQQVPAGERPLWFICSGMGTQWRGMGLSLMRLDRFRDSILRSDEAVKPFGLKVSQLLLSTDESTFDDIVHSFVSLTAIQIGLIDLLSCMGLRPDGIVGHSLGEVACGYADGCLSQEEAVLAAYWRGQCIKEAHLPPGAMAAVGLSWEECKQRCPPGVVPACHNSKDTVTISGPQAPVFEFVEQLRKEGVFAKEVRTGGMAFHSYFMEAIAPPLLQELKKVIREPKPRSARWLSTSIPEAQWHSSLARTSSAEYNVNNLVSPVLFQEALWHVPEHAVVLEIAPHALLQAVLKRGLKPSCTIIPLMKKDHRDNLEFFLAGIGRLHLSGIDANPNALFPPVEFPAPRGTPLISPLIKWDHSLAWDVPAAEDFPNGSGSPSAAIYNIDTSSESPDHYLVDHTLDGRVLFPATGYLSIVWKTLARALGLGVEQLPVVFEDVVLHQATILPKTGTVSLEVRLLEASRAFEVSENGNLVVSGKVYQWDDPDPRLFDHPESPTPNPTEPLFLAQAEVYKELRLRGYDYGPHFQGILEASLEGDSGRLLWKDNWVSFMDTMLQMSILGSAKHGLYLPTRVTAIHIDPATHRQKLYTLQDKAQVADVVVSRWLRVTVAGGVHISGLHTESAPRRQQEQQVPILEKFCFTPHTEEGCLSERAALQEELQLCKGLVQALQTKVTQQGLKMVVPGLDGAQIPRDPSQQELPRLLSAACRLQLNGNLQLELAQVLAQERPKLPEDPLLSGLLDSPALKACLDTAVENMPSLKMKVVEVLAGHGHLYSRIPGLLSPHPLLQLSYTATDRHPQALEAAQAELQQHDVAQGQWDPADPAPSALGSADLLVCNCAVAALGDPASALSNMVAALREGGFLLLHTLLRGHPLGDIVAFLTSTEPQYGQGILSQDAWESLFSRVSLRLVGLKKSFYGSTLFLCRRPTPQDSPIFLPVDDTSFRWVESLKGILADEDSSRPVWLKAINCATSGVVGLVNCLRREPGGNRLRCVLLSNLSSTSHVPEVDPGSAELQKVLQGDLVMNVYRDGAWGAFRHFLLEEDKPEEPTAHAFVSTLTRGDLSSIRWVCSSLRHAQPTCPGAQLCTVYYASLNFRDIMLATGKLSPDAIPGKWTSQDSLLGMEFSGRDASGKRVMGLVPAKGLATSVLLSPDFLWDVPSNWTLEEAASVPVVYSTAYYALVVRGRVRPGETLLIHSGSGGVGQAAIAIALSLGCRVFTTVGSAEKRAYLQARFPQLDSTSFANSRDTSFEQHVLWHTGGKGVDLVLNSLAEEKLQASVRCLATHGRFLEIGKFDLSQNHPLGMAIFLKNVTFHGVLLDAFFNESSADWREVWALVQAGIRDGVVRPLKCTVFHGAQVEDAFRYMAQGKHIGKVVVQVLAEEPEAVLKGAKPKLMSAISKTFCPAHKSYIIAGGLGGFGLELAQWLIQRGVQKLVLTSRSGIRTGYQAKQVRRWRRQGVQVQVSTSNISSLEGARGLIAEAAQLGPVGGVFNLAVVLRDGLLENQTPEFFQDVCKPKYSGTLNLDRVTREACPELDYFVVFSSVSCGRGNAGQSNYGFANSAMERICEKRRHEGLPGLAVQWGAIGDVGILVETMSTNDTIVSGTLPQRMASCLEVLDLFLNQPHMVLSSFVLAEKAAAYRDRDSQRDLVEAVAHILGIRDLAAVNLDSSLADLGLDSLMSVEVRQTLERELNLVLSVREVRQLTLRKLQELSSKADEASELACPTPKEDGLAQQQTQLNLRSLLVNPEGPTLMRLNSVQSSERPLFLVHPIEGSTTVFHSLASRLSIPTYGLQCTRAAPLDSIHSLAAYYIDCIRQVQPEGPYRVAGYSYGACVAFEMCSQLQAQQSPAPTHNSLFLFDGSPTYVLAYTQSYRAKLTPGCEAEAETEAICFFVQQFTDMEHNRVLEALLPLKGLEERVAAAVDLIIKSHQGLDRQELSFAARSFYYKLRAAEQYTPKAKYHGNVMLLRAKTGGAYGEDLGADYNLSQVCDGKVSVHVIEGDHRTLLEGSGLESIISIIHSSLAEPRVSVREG

“Valosin-containing protein (VCP), endogenous in osteosarcoma cells (from UniProt P55072 1-806)” was tested, and the binding was “binds”.

Source: PMC11532476
